No constants are given. Whether binding was seen depends on the method and setting. For part of these data: In cells and extracts the contact can be indirect. Some results given as binding are weak or reduced against the parent protein; the word gives no strength. One block for each substance: values may come before it.
Key:
[1] = biological target: GST-Hsp90 (amino acids 1-732) (human) (UniProt P07900); test: GST pull-down
[2] = biological target: GST-Hsp90 (amino acids 1-732) (human) (UniProt P07900); test: GST-Hsp90 pull-down of 35S in vitro translated protein, autoradiography
[3] = biological target: GST-Hsp90 (amino acids 1-732) (human) (UniProt P07900); test: pull-down of 35S in vitro translated XIAP BIR1 with GST-Hsp90, autoradiography
[4] = biological target: T1, Survivin Ile74-Leu87 peptide (human); test: affinity chromatography of Raji cell extracts on peptide coupled to Sulfolink gel, Western blot
T1 sequence (peptide): IDDHKKHSSGCAFL

[5] = biological target: T1, Survivin Ile74-Leu87 peptide (human); test: affinity chromatography on immobilized peptide, immunoblot
[6] = biological target: GST-Hsp90 (amino acids 1-732) (human) (UniProt P07900); test: 35S in vitro translated protein, Sepharose-GST-Hsp90 pull-down, autoradiography
[7] = biological target: GST-Hsp90 (amino acids 1-732) (human) (UniProt P07900); test: in vitro GST pull-down
[8] = biological target: GST-Hsp90 (amino acids 1-732) (human) (UniProt P07900); test: pull-down of 35S in vitro translated protein with Sepharose-GST-Hsp90, autoradiography
[9] = biological target: GST-Hsp90 (amino acids 1-732) (human) (UniProt P07900); test: in vitro pull-down with Sepharose-GST-Hsp90, Western blot
[10] = biological target: GST-N-Hsp90 (amino acids 1-272 of SEQ ID NO:21) (human); test: pull-down of r-Survivin with GST-Hsp90 N, Western blot for Survivin
[11] = biological target: GST-N-Hsp90 (amino acids 1-272 of SEQ ID NO:21) (human); test: in vitro pull-down with GST-N-Hsp90, Western blot
[12] = biological target: FLAG-Hsp90 N domain (amino acids 1-272 of SEQ ID NO:21) (human); test: anti-FLAG co-immunoprecipitation, immunoblot
[13] = biological target: GST-N-Hsp90 (amino acids 1-272 of SEQ ID NO:21) (human); test: in vitro pull-down of r-Survivin (30, 100, 300 ng) with GST-N-Hsp90, Western blot for Survivin
[14] = biological target: GST-Hsp90 (amino acids 1-732) (human) (UniProt P07900); test: in vitro pull-down of r-Survivin (30, 100, 300 ng) with Sepharose-GST-Hsp90, Western blot for Survivin
[15] = biological target: GST-Hsp90 (amino acids 1-732) (human) (UniProt P07900); test: pull-down of r-Survivin with GST-Hsp90, Western blot for Survivin
[16] = biological target: GST-Hsp90 (amino acids 1-732) (human) (UniProt P07900); test: pull-down of 35S in vitro translated XIAP with GST-Hsp90, autoradiography
[17] = biological target: full-length human, wild type Survivin (human) (UniProt O15392); test: in vitro pull-down, immunoblot
[18] = biological target: full-length human, wild type Survivin (human) (UniProt O15392); test: anti-FLAG co-immunoprecipitation from transfected HeLa cells, Western blot

binding [1]: binds | binding [2]: binds | binding [3]: binds
Substance: XIAP BIR1 fragment (Met 1 to Ser 123) (from UniProt P98170 1-123)

Substance: full length Hsp90alpha (from UniProt P07900 1-732)
binding [4]: binds | binding [5]: binds

binding [6]: binds | binding [7]: binds | binding [8]: binds
Substance: truncated form of XIAP containing only the three BIR domains, residues 1-292 (from UniProt P98170 1-292)

Substance: full-length human, wild type Survivin (from UniProt O15392 1-142)
binding [9]: binds | binding [10]: binds | binding [11]: binds | binding [12]: binds | binding [6]: binds | binding [13]: binds | binding [14]: binds | binding [15]: binds | binding [8]: binds

binding [6]: binds | binding [7]: binds | binding [8]: binds
Substance: cIAP2 (from UniProt Q13489 1-604)

binding [16]: binds | binding [2]: binds | binding [6]: binds | binding [7]: binds | binding [8]: binds
Substance: XIAP (full length) (from UniProt P98170 1-497)

Substance: GST-N-Hsp90 (amino acids 1-272 of SEQ ID NO:21) (from UniProt O02705 1-273)
binding [17]: binds

Substance: FLAG-Hsp90 N domain (amino acids 1-272 of SEQ ID NO:21) (from UniProt O02705 1-273)
binding [18]: binds
